Test results published in paper PMC5512694.
These are yes or no findings as the source states them, for the method shown. In cells and extracts the contact can be indirect.

Protein sequences, listed by entry. Tags and fused reporters are not part of them. Lines headed by an entry give the natural chain unless they say otherwise; changes in a name come on top.
UniProt Q5TH69: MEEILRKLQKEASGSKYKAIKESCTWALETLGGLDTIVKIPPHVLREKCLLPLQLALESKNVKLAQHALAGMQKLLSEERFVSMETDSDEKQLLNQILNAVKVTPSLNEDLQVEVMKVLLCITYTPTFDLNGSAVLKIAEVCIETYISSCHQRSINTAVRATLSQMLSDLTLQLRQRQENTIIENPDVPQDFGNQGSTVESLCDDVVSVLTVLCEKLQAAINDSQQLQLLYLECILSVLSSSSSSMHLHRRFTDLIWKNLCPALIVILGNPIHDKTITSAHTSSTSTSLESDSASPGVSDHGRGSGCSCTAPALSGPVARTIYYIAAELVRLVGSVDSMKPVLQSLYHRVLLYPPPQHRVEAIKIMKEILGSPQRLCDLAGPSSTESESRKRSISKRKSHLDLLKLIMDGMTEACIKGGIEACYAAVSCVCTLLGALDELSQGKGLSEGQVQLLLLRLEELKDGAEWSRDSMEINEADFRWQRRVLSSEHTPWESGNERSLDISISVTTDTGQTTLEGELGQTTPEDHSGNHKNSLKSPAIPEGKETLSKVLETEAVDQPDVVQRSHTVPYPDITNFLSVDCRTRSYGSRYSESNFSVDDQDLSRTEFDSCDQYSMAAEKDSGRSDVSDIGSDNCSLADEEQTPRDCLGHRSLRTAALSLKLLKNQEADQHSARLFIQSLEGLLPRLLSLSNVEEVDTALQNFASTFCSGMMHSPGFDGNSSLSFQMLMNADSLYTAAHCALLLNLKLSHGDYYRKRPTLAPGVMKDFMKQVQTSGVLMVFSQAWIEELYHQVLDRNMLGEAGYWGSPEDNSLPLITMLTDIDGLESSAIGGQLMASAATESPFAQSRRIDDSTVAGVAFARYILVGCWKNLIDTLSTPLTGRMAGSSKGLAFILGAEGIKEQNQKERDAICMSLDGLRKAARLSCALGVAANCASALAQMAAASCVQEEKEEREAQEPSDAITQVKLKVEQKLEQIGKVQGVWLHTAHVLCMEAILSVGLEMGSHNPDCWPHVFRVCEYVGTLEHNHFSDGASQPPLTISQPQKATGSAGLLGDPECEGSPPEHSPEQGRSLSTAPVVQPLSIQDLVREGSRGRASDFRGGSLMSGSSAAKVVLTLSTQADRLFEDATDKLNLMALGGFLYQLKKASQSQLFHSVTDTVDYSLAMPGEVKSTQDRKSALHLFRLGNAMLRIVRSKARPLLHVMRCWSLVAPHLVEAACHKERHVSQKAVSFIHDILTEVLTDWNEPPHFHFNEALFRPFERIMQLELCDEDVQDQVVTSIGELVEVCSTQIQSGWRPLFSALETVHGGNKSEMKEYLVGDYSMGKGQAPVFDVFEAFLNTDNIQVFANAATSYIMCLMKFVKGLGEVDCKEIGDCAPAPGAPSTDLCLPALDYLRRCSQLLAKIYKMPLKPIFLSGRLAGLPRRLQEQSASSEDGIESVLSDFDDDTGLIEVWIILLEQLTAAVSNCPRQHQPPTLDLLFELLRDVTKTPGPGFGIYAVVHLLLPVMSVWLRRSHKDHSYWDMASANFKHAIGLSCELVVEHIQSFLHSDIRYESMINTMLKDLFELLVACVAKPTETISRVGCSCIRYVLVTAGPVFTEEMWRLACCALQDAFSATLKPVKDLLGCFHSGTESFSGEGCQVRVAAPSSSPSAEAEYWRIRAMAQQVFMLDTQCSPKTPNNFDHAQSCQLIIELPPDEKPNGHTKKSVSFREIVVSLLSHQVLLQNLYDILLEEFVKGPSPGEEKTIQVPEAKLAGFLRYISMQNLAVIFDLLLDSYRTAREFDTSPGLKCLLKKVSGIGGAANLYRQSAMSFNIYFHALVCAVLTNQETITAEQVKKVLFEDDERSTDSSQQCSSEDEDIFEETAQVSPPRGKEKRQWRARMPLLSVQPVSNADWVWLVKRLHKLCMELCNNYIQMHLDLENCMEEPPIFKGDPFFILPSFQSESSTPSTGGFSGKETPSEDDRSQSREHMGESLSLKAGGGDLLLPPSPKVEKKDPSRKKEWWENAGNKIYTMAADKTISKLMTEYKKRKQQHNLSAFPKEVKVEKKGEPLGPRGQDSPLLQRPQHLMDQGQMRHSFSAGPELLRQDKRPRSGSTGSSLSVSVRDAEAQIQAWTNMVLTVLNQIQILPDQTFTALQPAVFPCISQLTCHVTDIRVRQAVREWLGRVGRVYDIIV
UniProt P62136: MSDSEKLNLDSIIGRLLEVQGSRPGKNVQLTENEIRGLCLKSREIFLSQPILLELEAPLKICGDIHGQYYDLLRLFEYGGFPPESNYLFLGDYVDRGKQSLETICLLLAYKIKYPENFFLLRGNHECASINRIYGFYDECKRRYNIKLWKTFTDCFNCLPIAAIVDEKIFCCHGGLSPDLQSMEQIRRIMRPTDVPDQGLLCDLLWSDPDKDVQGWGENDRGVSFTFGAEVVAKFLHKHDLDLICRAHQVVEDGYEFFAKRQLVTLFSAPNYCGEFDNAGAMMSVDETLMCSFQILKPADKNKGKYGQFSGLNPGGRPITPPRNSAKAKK

Molecular target: FLAG-tagged BIG3 mutant lacking the RVxF motif (ΔPP1Cα) (human) (UniProt Q5TH69)
Assay: co-IP; FLAG-tagged BIG3 ΔPP1Cα mutant and endogenous PP1Cα (Supplementary Fig. 1b); cells not given

**Q.** With “alpha isoform of the catalytic subunit of protein phosphatase 1 (PP1Cα), endogenous (from UniProt P62136 1-330) (enzyme)” as the substance, how does the binding read?
**A.** no binding
